PubChem BioAssay AID602196, INSERM – 2012
The deposit covers about 23,000 reagents; below is an unselected part. 455 of them (2%) count as active. 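Active includes both protection and sensitisation; some change values fall well beyond the stated -50 to +50 range.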 Further read-outs or replicates are left out here. Reagent sequences are not shown. Not given: the amount of reagent.

Test: 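Knock-downs that protect lung cancer cells from cisplatin or sensitise them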
Cells: human A549 lung cancer cells
Knock-down reagent: siRNA pair against human genes
Duration: 48 h transfection before cisplatin; time from cisplatin to read-out not stated
Conditions: cisplatin at a dose killing half of control-siRNA cells; exact dose and duration not given
Measurement: 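Shift in cisplatin death relative to control siRNA, from -50 (all cells die) to +50 (no cells die); siRNAs harmful on their own scored 0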
Direction: two-siRNA summed score (-2 to +2): higher = both siRNAs protect from cisplatin killing; -2 means both sensitise; mean protection from cisplatin (shift in death) and protection from cisplatin (shift in death), siRNA C: higher = protection from cisplatin killing
Hit rule: 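Each siRNA scores 0 if harmful alone by LDH or WST-1, otherwise +1 if it reduces and -1 if it increases cisplatin killing; a gene is active when both siRNAs agree (sum +2 or -2)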
Calls: active = both siRNAs shift cisplatin killing the same way; inactive = no consistent shift, or siRNA harmful alone

gene knocked down	PubChem SID	two-siRNA summed score (-2 to +2)	mean protection from cisplatin (shift in death) (%)	protection from cisplatin (shift in death), siRNA C (%)	activity call
LOC442002	SID131510386	0	3.2	-2.6	inactive
RAI14	SID131509338	0	2	2.4	inactive
MED12L	SID131511928	0	4.9	8.6	inactive
EIF4EBP1	SID131514280	0	7.6	-3.6	inactive
LOC285984	SID131507278	0	-0.3	3	inactive
CDKL2	SID131513712	0	6.9	4	inactive
P2RY10	SID131516370	0	10.7	15.8	inactive
ARMH3	SID131518277	0	17.8	0.7	inactive
LOC284240	SID131504423	0	-5.5	-23.5	inactive
SCGB3A1	SID131521455	1	13.6	3.9	inactive
CNTNAP4	SID131508105	0	0.6	9.5	inactive
RASA1	SID131504102	0	-6.5	-27.8	inactive
MAP2K1	SID131502330	-1	-3.4	9	inactive
LOC402057	SID131518625	0	22.8	29.4	inactive
NDUFS7	SID131513442	0	6.6	0.8	inactive
LHFPL1	SID131515418	0	9.1	10.7	inactive
LOC391426	SID131523039	2	17.7	19.9	active
SERGEF	SID131509393	0	2.1	6.2	inactive
LOC440196	SID131515005	0	8.5	18.1	inactive
IGDCC3	SID131507488	0	-0.1	-4	inactive
OPRPN	SID131515377	0	9.1	4.4	inactive
LRP2BP	SID131501333	-1	-10.5	8.3	inactive
MRAP2	SID131506166	0	-1.9	-6.2	inactive
MNS1	SID131501518	-1	-9.2	-1.1	inactive
ABLIM1	SID131519031	1	1.2	-8.7	inactive
ERO1A	SID131500833	-1	-15.5	-21	inactive
RAB3IL1	SID131504149	0	-6.4	2.2	inactive
PLA2G4D	SID131514502	0	7.9	12.3	inactive
GALNT5	SID131520992	1	11.8	17.8	inactive
AHCTF1	SID131504079	0	-6.6	1	inactive
RYBP	SID131506555	0	-1.3	-3	inactive
AKNAD1	SID131509966	0	2.7	-4	inactive
MOB1B	SID131511221	0	4.1	4.2	inactive
DHRS11	SID131521657	1	14.4	-9.3	inactive
LOC343153	SID131510810	0	3.6	-5.7	inactive
UPRT	SID131523150	2	21.6	22.3	active
LOC400410	SID131508587	0	1.2	-4.1	inactive
COBL	SID131503784	0	-7.8	-6.5	inactive

Called active (from the list above):
gene knocked down	PubChem SID	two-siRNA summed score (-2 to +2)	mean protection from cisplatin (shift in death) (%)	protection from cisplatin (shift in death), siRNA C (%)	activity call
LOC391426	SID131523039	2	17.7	19.9	active
UPRT	SID131523150	2	21.6	22.3	active

Further reagents:
gene knocked down	PubChem SID	two-siRNA summed score (-2 to +2)	mean protection from cisplatin (shift in death) (%)	protection from cisplatin (shift in death), siRNA C (%)	activity call
LOC134541	SID131517108	0	12.4	14.1	inactive
ZBTB10	SID131507184	0	-0.4	0.1	inactive
LEPROT	SID131502598	-1	-0.3	16.2	inactive
LOC440113	SID131515083	0	8.6	5.8	inactive
ZNF300	SID131522162	1	16.6	20.4	inactive
OR4K14	SID131506242	0	-1.8	7.9	inactive
BCKDK	SID131521005	1	11.8	20.8	inactive
ZSCAN20	SID131519671	1	6.9	-3.3	inactive
LOC400888	SID131515509	0	9.3	15	inactive
RCOR2	SID131501522	-1	-9.2	-3	inactive
LOC440074	SID131506113	0	-2	-4.5	inactive
SLC66A1	SID131506313	0	-1.7	-10.8	inactive
SLC6A1	SID131522719	1	22.3	22.3	inactive
TEX14	SID131522373	1	18	12.8	inactive
KCNT2	SID131504807	0	-4.4	1.9	inactive
LOC440952	SID131516738	0	11.5	12.1	inactive
OR52E2	SID131520773	1	11.1	19.5	inactive
CFAP68	SID131505286	0	-3.4	-5.7	inactive
FRMD3	SID131506610	0	-1.2	-1.7	inactive
LOC442721	SID131521852	1	15.2	22	inactive
AQP10	SID131512702	0	5.8	7.8	inactive
NRF1	SID131502358	-1	-3.1	13	inactive
DYRK2	SID131522915	2	9.4	9.2	active
FGF2	SID131507618	0	0.1	1.2	inactive
CDH20	SID131500607	-1	-19.6	-35.2	inactive
H3-4	SID131510038	0	2.8	-1.5	inactive
SCYL1	SID131521658	1	14.4	3.5	inactive
VASH1	SID131515315	0	9	23.9	inactive
LOC128102	SID131507282	0	-0.3	8.8	inactive
PPIP5K2	SID131513623	0	6.8	7.1	inactive
LOC387940	SID131510159	0	2.9	5	inactive
PAFAH1B2	SID131520483	1	10	3.5	inactive
C9orf50	SID131503195	0	-12.3	-7.6	inactive
PRPF40A	SID131522555	1	19.9	12.1	inactive
EYA2	SID131512753	0	5.8	5.3	inactive
